What was measured:
[1] = solid-phase peptide synthesis; conditions: acetate salt; for final HPLC purity: conjugation step
[2] = general procedure: Boc solid-phase peptide synthesis; Boc-Val-PAM; DCC and HOBT in N-methyl-2-pyrrolidinone; conditions: whole synthesis, analytical HPLC, Vydac C18, 214 nm, acetate salt

4-des-Acetylvinblastine-23-(N-Ac-4-trans-L-Hyp-Ser-Ser-Chg-Gln-Ser-HCAP) amide acetate salt
final HPLC purity ([1]; 214 nm): 99%

4-des-Acetylvinblastine-23-(N-Ac-Ser-Chg-Gln-Ser-Ser-Pro-HCAP) amide acetate salt
final HPLC purity ([1]; 214 nm): 99%

N-Acetyl-4-trans-L-Hyp-Ser-Ser-Chg-Gln-Ser-HCAP amine
purity (crude or final not stated) ([1]; 214 nm): 99%

N-Acetyl-Ser-Chg-Gln-Ser-Ser-Pro-HCAP amine
purity (crude or final not stated) ([1]; 214 nm): 99%

N-Acetyl-Ser-Ser-Ser-Chg-Gln-Ser-Val-OH
crude HPLC purity ([2]; scale 3 x 0.5 mmol): 96%

N-methoxydiethyleneoxyacetyl-4-trans-L-Hyp-Ser-Ser-Chg-Gln-Ser-Val-OH
final HPLC purity ([2]; scale 2 x 0.5 mmol): 99%

des-Acetylvinblastine-4-O-(N-Acetyl-4-trans-L-Hyp-Ser-Ser-Chg-Gln-Ser-Ser-Pro) ester
final HPLC purity ([1]; analytical HPLC, Vydac C18, 214 nm): 98.9%

From patent US20040058857A1 (priority 2003, published 2004)
